Among the data in PubChem BioAssay AID1347426 (Functional Genomics Laboratory (NCATS/FGL), 2020) are median seed-adjusted z-score values, retold here.

Hit rate of the full screen: of about 31,000 sequences, about 1,400 (4.5%) were called active.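 How the source made its calls: active means median seed-adjusted z-score above 1 or below -1; inactive means the rest.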 The list shows a part of the results.

The assay in a line: Novel Modifiers of Survival Motor Neuron (SMN) Protein: Gene Identification via Genome-wide siRNA Screen.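 Further: luminescence tracks full-length SMN protein made from the SMN2 reporter.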 Particulars: HEK293T SMN2-luciferase reporter, siRNA knockdown, 72 h; actives lie on both sides. Put shortly: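 HEK293T cells stably expressing an SMN2 splicing/cDNA-luciferase reporter were reverse-transfected with a druggable-genome siRNA library and read by luminescence at 72 hours; hits defined by MAD score above 1.0 or below -1.0.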
On the technique in general: A reporter such as luciferase makes a cellular process visible.
GGAAGAUGGUUGGGUGAAATT against PSMB8: the median seed-adjusted z-score was inactive: 0.

Take CUGUUACACCAGUAUCUGATT against KLF10: the median seed-adjusted z-score was inactive: 0.616.

Turning to UGUUCAGCAUAGUUGUUUUTT against SLC12A9, the median seed-adjusted z-score was inactive: -0.0853.

As to GCUUCAACGAGGACUUCAATT against P2RY2, the median seed-adjusted z-score was inactive: 0.119.

Regarding GAAUUCGCGUUUUCCGAUATT against PCDHA1, the median seed-adjusted z-score was inactive: -0.013.

On to GGAUUUCUGGGAAUAAUGUTT against TRIM35, for which the median seed-adjusted z-score is inactive: -0.0463.

As to CAAAGUUGGAUGAAGCUAATT against TNFAIP3, the median seed-adjusted z-score was inactive: 0.11.

For the sequence CAUCCAAGCUGCUACAGAATT against ATP1A1, the median seed-adjusted z-score was inactive: 0.271.

With GCCUGACUGUAACACCCAATT against TXN2, the median seed-adjusted z-score is inactive: 0.87.

As for AGGCUGGAUUGAUCUCCAATT against CBFB, the median seed-adjusted z-score was inactive: -0.0379.

With GGGCAUUAUAAACAAUCUATT against C4BPA, the median seed-adjusted z-score is inactive: 0.309.

In the case of GGAGUAUGGUUGCUGUGGATT against TXNRD3, the median seed-adjusted z-score is inactive: 0.69.

Consider GGAGAUUUGUCUACCAUGATT against GTF2B, for which the median seed-adjusted z-score was inactive: -0.855.

Take CGUCUAUACUUACAAGCUUTT against SF3B3: the median seed-adjusted z-score is active: -2.53.

As for GGACCUCCCUUCAACAUCATT against DYSF, the median seed-adjusted z-score is inactive: -0.23.

In the case of GAGCUAUGCUGUUAGGGUUTT against PRSS12, the median seed-adjusted z-score is inactive: 0.119.

On to CCCUAAAUAUUUGUAAGUUTT against THOC3, for which the median seed-adjusted z-score is inactive: 0.689.

Consider GGCUAGACCUCACUACUAATT against FOXP2, for which the median seed-adjusted z-score was inactive: 0.222.

For the sequence CAUCACCUAUUGGAUCCAATT against MMP9, the median seed-adjusted z-score is active: -1.15.

Consider CCAUAAACGUGCUUUGAGATT against TIMM13, for which the median seed-adjusted z-score was inactive: -0.422.

GAGGCAGACAAAAACCUUUTT against CRTC1: the median seed-adjusted z-score was inactive: 0.00363.

GCCUCAAUCUCUACUCGAATT against PCDHGA2: the median seed-adjusted z-score is inactive: -0.8.

As to GAACCAUUCUGAGCGAGUUTT against F10, the median seed-adjusted z-score is inactive: -0.0033.

Take GGACAAUAACGUAGAGGAATT against MMP17: the median seed-adjusted z-score was inactive: -0.653.

Take GUCCGUGUCUUCUUCAAAATT against EPHB1: the median seed-adjusted z-score is inactive: -0.0232.

As for UGACAUCCGUGACCUCUAATT against LHX9, the median seed-adjusted z-score is inactive: 0.157.

As for CAGUGUAUCUGCAUUAGAATT against NOX4, the median seed-adjusted z-score is inactive: -0.246.

In the case of GAUUCUAGGAUAAGCACUATT against KLK8, the median seed-adjusted z-score is inactive: 0.736.

For the sequence GAAGCGGAGUUUUACAACATT against KCTD2, the median seed-adjusted z-score is inactive: 0.133.

For GCAAAGAGAUUUUCAACAATT against EXOSC5, the median seed-adjusted z-score is inactive: 0.109.

As to GCCGGAUGAGAUUUCCAUATT against ITPA, the median seed-adjusted z-score is inactive: 0.616.

Consider GCACUUUUCGAGGAGGAGATT against SLC12A7, for which the median seed-adjusted z-score is inactive: -0.0309.

Turning to ACUUCUACAUCAACGACAATT against ALDH4A1, the median seed-adjusted z-score is inactive: 0.0362.

AGAUAGAUGUGGUACCCAUTT against IL1RN: the median seed-adjusted z-score was inactive: 0.283.

For CUAUCCAUAUGAACUAUGATT against SLC30A4, the median seed-adjusted z-score was inactive: 0.158.

Take GACUUUUCAGAGUCUUUCATT against NYX: the median seed-adjusted z-score is inactive: 0.0685.

Take GGUUGAAGCUUAUUGCAGATT against HARS2: the median seed-adjusted z-score is inactive: 0.

As to GGAAUUAUGGAAAAACUCUTT against NHLH1, the median seed-adjusted z-score was inactive: -0.0084.

For GGCAGAUGAUGGUAUCACATT against CNGA4, the median seed-adjusted z-score was inactive: 0.125.

For CAGUCAAGCAGUCAACAAATT against MAP1D, the median seed-adjusted z-score is inactive: 0.155.

On to GCGUCUCACUCAUUGCGUUTT against BAZ2B, for which the median seed-adjusted z-score is inactive: -0.679.

As for AGAAGAACGACGACCAAAATT against COMP, the median seed-adjusted z-score was inactive: 0.331.

For the sequence CAAGUGUCACAUUCGCAAATT against GALR1, the median seed-adjusted z-score is inactive: -0.721.

As for GGAAAUUCAGGUACGGAUATT against ADAMTS4, the median seed-adjusted z-score is inactive: -0.0153.

With CAGUUAUUCUCUCUCCAUATT against SDHC, the median seed-adjusted z-score was inactive: 0.00895.

Take GCACAGACCUGGUGUGGAATT against NECAB2: the median seed-adjusted z-score was inactive: -0.286.

For UGGUGGAAAUUUCCCUUUATT against CDH16, the median seed-adjusted z-score was inactive: -0.209.

Regarding AACUCGUGUUGUUGAAAAATT against GATAD2A, the median seed-adjusted z-score was inactive: -0.715.

In the case of CAAUAUUCAGUAACCAAGUTT against ESM1, the median seed-adjusted z-score was inactive: 0.141.

Take AGGAGUCACUGCACAUUAATT against ZNF205: the median seed-adjusted z-score is inactive: -0.468.

As to GAAUCUGCCUGAUAAUCGATT against CFLAR, the median seed-adjusted z-score is inactive: -0.413.

Turning to GACUAUUCCCUGCACCACATT against ABHD9, the median seed-adjusted z-score was inactive: 0.486.

In the case of GCUUCCCGGUUCAUCAUUATT against SOAT1, the median seed-adjusted z-score is inactive: 0.409.

With GAGAGACCAUAUACUCAUATT against ZNF559, the median seed-adjusted z-score is inactive: -0.0208.

As to GAAAAGGGAUAACUACGAATT against HIVEP3, the median seed-adjusted z-score was inactive: 0.516.

Turning to CCGGUUGAGUGGGAGAGAATT against ASMTL, the median seed-adjusted z-score was inactive: -0.0375.

Regarding CAUUCGCUGUGGAGAGGAATT against TPST1, the median seed-adjusted z-score was inactive: -0.00547.

For CCUCAAUACUCCGCAAAUATT against NMNAT2, the median seed-adjusted z-score was active: -1.58.

As to CCCACAAACUUUGUGCAUATT against CDC42SE2, the median seed-adjusted z-score was inactive: 0.381.

GCUUGUUAAGAAAGAGUUUTT against GZMA: the median seed-adjusted z-score was inactive: -0.234.

Turning to GGAUUUGACCUGUACUUCATT against ANTXR1, the median seed-adjusted z-score is inactive: -0.0849.

As to AGGCGAUCCUGUCUCCAAATT against RPUSD1, the median seed-adjusted z-score is inactive: 0.327.

Take GGUUAUUCGCUCUAUAGGATT against FLJ12529: the median seed-adjusted z-score is inactive: 0.852.

As to GUCUAUGUCAAGUUCCGGATT against U2AF1L4, the median seed-adjusted z-score was inactive: 0.

GGACCAUAACUCUUACGUATT against RBM26: the median seed-adjusted z-score was inactive: -0.967.

Take GGAUGAGGUCUUCACCAAATT against NENF: the median seed-adjusted z-score was inactive: -0.778.

For the sequence CGGCCUUCUCGAUUCCUUUTT against SAFB2, the median seed-adjusted z-score was inactive: 0.0394.

As for CUGGAUGAGGUGUACCUUATT against XPNPEP1, the median seed-adjusted z-score was active: -1.5.

As to GAAAUACAAGGAAUCUGAATT against TMTC4, the median seed-adjusted z-score is active: -1.16.

As for GCUGUACACCCUCAACAAATT against MTG1, the median seed-adjusted z-score is inactive: -0.19.

Turning to CGAAUCUCAUGUUCAGGAATT against LPA, the median seed-adjusted z-score was inactive: -0.321.

Turning to GGUGGUGCUUUAUACUGGATT against AS3MT, the median seed-adjusted z-score was inactive: -0.74.

Regarding CCACGUUUUGAUCAACAAUTT against RDH11, the median seed-adjusted z-score was inactive: -0.241.

Turning to ACAUGUGGGUGACGGUUUUTT against SRM, the median seed-adjusted z-score is inactive: 0.

As for CGCUAUCGCUACAUCAUGATT against TRPM6, the median seed-adjusted z-score was inactive: -0.0375.

With GAGUGGGCGUGGAUAGAAATT against PSMC2, the median seed-adjusted z-score was active: -1.96.

As for GGAGGUGACAAGCCGCAUATT against NOS3, the median seed-adjusted z-score was inactive: 0.212.

Take AGACCAUCGCCUACGGUUATT against SARDH: the median seed-adjusted z-score is inactive: -0.195.

On to AGUGCAAAAACGUGCUGAATT against AURKAIP1, for which the median seed-adjusted z-score is inactive: 0.067.

For the sequence GCCGAAUUCCGGAUCUACATT against BMP7, the median seed-adjusted z-score is inactive: -0.893.

Take ACAUGGAGCUGUACCGACUTT against NTN3: the median seed-adjusted z-score was inactive: 0.298.

As to GGUUCAUACAGACUCUUAUTT against PJA2, the median seed-adjusted z-score was inactive: 0.

Take GGAUUUGCUCUCUAUAGAATT against RHBDL2: the median seed-adjusted z-score is inactive: 0.0701.

For the sequence GGCCUUACCAAUCAUCAUUTT against SLC28A2, the median seed-adjusted z-score was inactive: -0.076.

Consider CACUGACACUUACAAUGAATT against UGT3A1, for which the median seed-adjusted z-score was inactive: 0.864.

For the sequence GCACCUUAUGAGUGGAAGATT against GGH, the median seed-adjusted z-score was inactive: -0.105.

On to UAAUUCAGAUCAAAGGUAATT against ZNF600, for which the median seed-adjusted z-score is inactive: 0.252.

CACAGAUUCUGUUACAACUTT against SERPINA11: the median seed-adjusted z-score was inactive: -0.0879.

For GCUCAGAUAUUGCUGUUGATT against FMO2, the median seed-adjusted z-score was inactive: -0.265.

In the case of GUUCCAUUAUCAAACCCGATT against UBE3B, the median seed-adjusted z-score was inactive: 0.0972.

On to GCCUAUGAUUUAGGACUAATT against MNDA, for which the median seed-adjusted z-score is inactive: 0.232.

For CCAAGGUUCAAGAUUAAUATT against SNW1, the median seed-adjusted z-score was inactive: 0.148.

AGAGUUUGGACAAAAAGAATT against SLC25A25: the median seed-adjusted z-score is inactive: -0.668.

Consider AGACCAACCUCACAUAUGATT against TRIM62, for which the median seed-adjusted z-score was inactive: -0.000231.

For the sequence GGAGAUCUGAAAUCAGGGATT against TP53BP1, the median seed-adjusted z-score was inactive: -0.166.

For the sequence GGACCCAAAUUCAGAAGAATT against ANKRA2, the median seed-adjusted z-score was active: 1.26.

Regarding AAUAUUUGCUGUUCGUCAATT against MOCS2, the median seed-adjusted z-score is inactive: 0.0327.

Turning to UCAAGCAUGUGGUCCUGUATT against AIP, the median seed-adjusted z-score is inactive: 0.529.

Take CCUCAGUGGUGGUAGAUGUTT against APEH: the median seed-adjusted z-score was inactive: -0.0726.

For the sequence CGAUGUUGGUUAUGAGAGATT against ACTR3, the median seed-adjusted z-score is inactive: -0.7.

CGAUACACCCUGGAAAUUATT against ALOX15: the median seed-adjusted z-score was inactive: 0.0369.

For CCGUAGGAGAUGUUCGUCATT against NEK1, the median seed-adjusted z-score was inactive: 0.296.

With GGAGAAGCUUAUUUUCUCATT against GDPD5, the median seed-adjusted z-score was inactive: -0.0618.

Turning to GGCUGGUUCCUUUAGUGAATT against MTHFD1L, the median seed-adjusted z-score is inactive: -0.0577.

With GGUAUGCGACGGGAAAGUATT against FASN, the median seed-adjusted z-score was inactive: 0.282.

Turning to UGCCGUUAAUUAAGGAAAATT against DTYMK, the median seed-adjusted z-score was inactive: -0.191.

On to AGACCCUGGUAGUAGCUGATT against ADAMTS7, for which the median seed-adjusted z-score was inactive: 0.146.
